Test results taken from PubChem BioAssay AID2685 (National Center for Advancing Translational Sciences (NCATS), 2010).
Some of the results follow. These are further read-outs of the screen, such as a control signal, another cell line or another target. No call is given for them. Most of these compounds were active or inconclusive in the main read-out, so they are no random draw. Words in brackets tell the shape of the fitted curve; partial curves, single points and poor fits give uncertain potencies.

Assay: qHTS Assay for Lipid Storage Modulators in Drosophila S3 Cells;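 on cell number change: cells counted by Cell Tracker Red CMTPX staining in the red channel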
Settings: BODIPY lipid droplet fluorescence, 18-24 h; for cell number change: measured here: cell count max response, cells fed with added oleic acid
Method in brief: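 Drosophila S3 cells loaded with oleic acid (400 uM, as added) and compounds at several concentrations; lipid droplets imaged by 488-nm laser-scanning cytometry, 500–530 nm intensity and object ratio to cell channel. Percent activity normalized to 20 uM Triacsin C.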

[1] = measured here: cell number channel AC50, cells fed with added oleic acid
[2] = measured here: lipid fluorescence (Fed channel) AC50, cells fed with added oleic acid

Row | SMILES | cell number change [%] | AC50 [1] | AC50 [2]
1 | O=C(N/C(=C\c1cccc([N+](=O)[O-])c1)C(=O)N1CCOCC1)c1ccco1 | 44.4 | 9.2 µM [rising, partial curve] | 5.17 µM [rising, full curve]
2 | Cc1cc(NC(=O)CSc2ccc3c(c2)OCCO3)no1 | 19.9 |  | 0.206 µM [rising, full curve, poor fit]
3 | Cc1cccc(S(=O)(=O)N2CN(Cc3ccco3)c3nc4ccccc4nc32)c1 | -6.7 |  | 0.461 µM [falling, full curve, poor fit]
4 | COc1ccc(NC(C)=O)cc1C | -41.3 | 18.4 µM [falling, single point] | 18.4 µM [falling, single point]
5 | O=C(c1ccccc1)c1ccc(OC(=O)C2CCCCC2)cc1 | -15.3 |  | 29.1 µM [falling, single point]
6 | COc1ccc(C(=O)Nc2ccnn2C2CCN(C(=O)CCC(F)(F)F)CC2)cc1 | -13.1 |  | 
7 | CCc1noc(C)c1C(=O)OC(C)C(=O)Nc1ccc(Cl)cn1 (stereo unspecified) | 31.2 | 1.03 µM [rising, full curve, poor fit] | 2.91 µM [rising, partial curve, poor fit]
8 | O=C(NCCC1=CCCCC1)C(=O)NCC1OCCCN1S(=O)(=O)c1cc(F)ccc1F (stereo unspecified) | -74.7 | 0.92 µM [falling, full curve] | 
9 | COc1cc(/C=C(/C#N)c2ccc(F)cc2)ccc1OCc1ccc(C(=O)O)o1 | -0.331 |  | 6.51 µM [rising, single point]
10 | COc1cc(OC)c(-c2nc3cnccc3n2C)cc1OC | 92.3 | 29.1 µM [rising, single point] | 6.51 µM [falling, single point]
11 | O=C(O)c1ccc2nc3c(nc2c1)-c1ccccc1C3=O | 26.6 | 4.11 µM [rising, single point] | 
12 | Cc1cc(C)nc(SC2CC(=O)N(c3ccc(C)c(C)c3)C2=O)n1 (stereo unspecified) | -4.95 |  | 29.1 µM [rising, single point]
13 | Cc1c(C(=O)C(=O)NCCCn2ccnc2)c2ccccc2n1C | -33.4 | 20.6 µM [falling, single point] | 8.2 µM [falling, partial curve]
14 | COc1ccccc1CNC(=O)c1cccc(-c2ccc(C)c3ccccc23)n1 | 18.9 |  | 4.11 µM [rising, partial curve]
15 | CCC(CC)C(=O)Nc1cccc(S(=O)(=O)c2cccc(NC(=O)C(CC)CC)c2)c1 | 6.77 |  | 0.00461 µM [rising, full curve, poor fit]
16 | O=C(CN(C(=O)CNC(=O)c1ccco1)c1cccc(F)c1)NC1CCCCC1 | 15.4 |  | 
17 | Cc1ccc(NC2=NCC(=O)N2Cc2ccc3c(c2)OCO3)cc1 | 8.53 |  | 1.84 µM [rising, full curve]
18 | Brc1ccc(COc2ncnc3ccccc23)cc1 |  | 5.8 µM [rising, single point] | 5.17 µM [rising, single point]

Only AC50 [2] (two entries from above):
Row	SMILES	AC50 [2]
12	Cc1cc(C)nc(SC2CC(=O)N(c3ccc(C)c(C)c3)C2=O)n1 (stereo unspecified)	29.1 µM [rising, single point]
13	Cc1c(C(=O)C(=O)NCCCn2ccnc2)c2ccccc2n1C	8.2 µM [falling, partial curve]

(next part)

Row | SMILES | cell number change [%] | AC50 [1] | AC50 [2]
19 | COc1ccc(N(CC(=O)NC2CC2)S(=O)(=O)c2ccccc2)cc1 | -6.58 |  | 
20 | CC(=O)NC(c1ccco1)c1cc(Cl)c2cccnc2c1O (stereo unspecified) | 36.2 | 14.6 µM [rising, single point] | 18.4 µM [rising, partial curve]
21 | CCn1cnc2c1c(=O)n(Cc1cccc(Br)c1)c(=O)n2Cc1ccccc1 | 16.1 |  | 
22 | Cc1cccc(-n2c(SCc3cc(=O)n4ccsc4n3)nc3ccccc3c2=O)c1 | 10.5 | 0.92 µM [rising, partial curve] | 2.59 µM [rising, partial curve]
23 | COc1ccc(CNC(=O)Cn2cncn2)cc1OC | 20.9 |  | 
24 | Cc1ccc(OCC(=O)Nc2ccc(C(=O)O)cc2NC(=O)COc2ccc(C)c(C)c2)cc1C | 16.8 |  | 29.1 µM [rising, single point]
25 | CS(=O)(=O)N1CCCC(C(=O)Nc2ccc(F)cc2F)C1 (stereo unspecified) | -61.3 | 29.1 µM [falling, single point] | 23.1 µM [falling, single point]
26 | CCCOc1ccccc1NC(=O)c1ccc(N)cc1 |  | 0.461 µM [rising, full curve] | 0.58 µM [rising, full curve]
27 | COC(=O)C1=CN(CCCN2CCCC2=O)C=C(C(=O)OC)C1c1ccccc1C(F)(F)F | -17.4 |  | 
28 | O=C(NC(Cc1ccccc1)C(=O)N1CCCCCC1)c1ccccc1 (stereo unspecified) | -6.49 |  | 1.3 µM [rising, full curve]
29 | Cc1cc(=O)oc2cc(NC(=O)c3ccccc3OC(F)F)ccc12 | -17.9 |  | 0.58 µM [falling, partial curve, poor fit]
30 | O=C(NC(Cc1ccccc1)C(=O)O)/C(=C/c1ccc([N+](=O)[O-])cc1)NC(=O)c1ccc(Br)o1 (stereo unspecified) | 32.9 |  | 
31 | COc1ccc(-c2nc(SCC(=O)N3CCCC3)n[nH]2)cc1 | 26.9 |  | 0.206 µM [rising, partial curve, poor fit]
32 | O=C(O)c1cccc(S(=O)(=O)NNc2ccccc2C(F)(F)F)c1 | 55.1 | 29.1 µM [rising, single point] | 5.17 µM [rising, single point]
33 | Cc1ccc2c(c1)c1c3n2CCN(C(=O)Cn2c(-c4ccccc4)noc2=O)C3CCC1 (stereo unspecified) | -16.5 |  | 
34 | COC(=O)c1ccccc1NC(=O)Cn1c(CCC(=O)O)ccc1-c1cccs1 | 20.4 | 1.84 µM [rising, full curve, poor fit] | 4.11 µM [rising, partial curve]
35 | CCc1ccccc1NC(=O)CN(C)S(=O)(=O)c1ccc2c(c1)c(=O)n(C)c(=O)n2C | 40 | 29.1 µM [rising, single point] | 29.1 µM [rising, partial curve, poor fit]
36 | O=C(Oc1ccc(-c2cnc3ccccc3n2)cc1)c1cccc([N+](=O)[O-])c1 | 13.5 | 2.59 µM [rising, single point] | 29.1 µM [falling, single point]
